These are yes or no findings as the source states them, for the method shown.
Target: GFRα1
Test: condition: 25 µL GFRα1 (1 mg/mL) with 40 µg bDNSP-11; pull-down with streptavidin magnetic beads, flow-through and elution analysed (FIG. 13)

In the case of PPEAPAEDRSL (N-terminal biotin; C-terminal amide) [biotinylated DNSP-11], the binding is reported as “no binding”.

From patent publication US20130065830A1
